Results reported in PMC3672139.
The exact form of at least one protein or probe is not confirmed. For some assays here: Negatives hold for the conditions tested.

Chains of the proteins cited; added tags and fusions are not shown. A line that says so, or that is headed by a name, gives the form on record, which may keep a tag or linker.
RB1 (human), one chain, as listed by the source: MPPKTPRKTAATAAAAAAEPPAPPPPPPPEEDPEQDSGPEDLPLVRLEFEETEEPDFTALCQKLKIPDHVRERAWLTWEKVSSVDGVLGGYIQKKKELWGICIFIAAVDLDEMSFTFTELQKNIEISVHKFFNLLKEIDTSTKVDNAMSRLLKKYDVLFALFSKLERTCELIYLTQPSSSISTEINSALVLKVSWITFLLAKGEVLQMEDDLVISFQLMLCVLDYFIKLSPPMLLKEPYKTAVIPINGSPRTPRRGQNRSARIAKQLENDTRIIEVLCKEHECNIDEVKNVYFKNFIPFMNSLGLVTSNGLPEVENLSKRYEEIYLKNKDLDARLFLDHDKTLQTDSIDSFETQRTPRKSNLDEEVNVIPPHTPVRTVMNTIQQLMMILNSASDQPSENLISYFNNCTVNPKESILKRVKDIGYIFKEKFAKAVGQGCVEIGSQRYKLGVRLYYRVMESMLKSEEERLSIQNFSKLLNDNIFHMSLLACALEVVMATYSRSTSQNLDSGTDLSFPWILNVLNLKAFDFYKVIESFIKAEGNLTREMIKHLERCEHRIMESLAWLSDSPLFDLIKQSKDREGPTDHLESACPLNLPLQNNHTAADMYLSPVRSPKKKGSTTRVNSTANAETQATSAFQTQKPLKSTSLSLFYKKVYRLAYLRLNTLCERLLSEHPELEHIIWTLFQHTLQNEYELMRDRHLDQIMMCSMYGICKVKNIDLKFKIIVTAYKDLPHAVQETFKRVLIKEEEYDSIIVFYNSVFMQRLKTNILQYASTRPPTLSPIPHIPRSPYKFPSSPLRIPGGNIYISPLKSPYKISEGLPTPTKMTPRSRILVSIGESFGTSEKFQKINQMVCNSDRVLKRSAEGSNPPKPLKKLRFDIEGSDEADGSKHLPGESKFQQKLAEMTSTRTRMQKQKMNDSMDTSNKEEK

How the values were obtained:
[1] = tested on: RB1 (human); assay: EMSA; settings: 10 mM Tris-HCl, 150 mM NaCl, 5 mM KCl, pH 7.4; EMSA room temperature 30 min, 12% PAGE in TBE; recombinant protein; folded or branched DNA
[2] = tested on: RB1 (human); assay: SPR; settings: DNA immobilized, 650 mM NaCl; 10 mM Tris-HCl, 150 mM NaCl, 5 mM KCl, pH 7.4; SPR 25 C (RB1 SPR with 650 mM NaCl); recombinant protein; label: 5'-biotin (SPR); single-stranded DNA

| Sequence | binding result [1] | binding result [2] |
| --- | --- | --- |
| CGGGGGGTTTTGGGCGGC [RB1 G4] | binds |  |
| CGTTTTGTTTTGGGCGGC [RB1 G4 Mut.] |  | no binding |
